These are yes or no findings as the source states them, for the method shown. Binding seen in cells or lysates may run through a third protein. Some entries that bind do so weakly or less than the wild type.
Biological target: GST-Rab2(Q65L), GTP-locked Drosophila Rab2 (Drosophila melanogaster) (UniProt O18333)
Test: pull-down; small-scale affinity chromatography with GDP- and GTP-locked GST-Rabs; lysates of S2 cells (endogenous protein or transfected tagged protein); immunoblot; only the target purified

Chains of the proteins cited; added tags and fusions are not shown. Lines headed by an entry give the natural chain unless they say otherwise; changes in a name come on top.
UniProt O18333: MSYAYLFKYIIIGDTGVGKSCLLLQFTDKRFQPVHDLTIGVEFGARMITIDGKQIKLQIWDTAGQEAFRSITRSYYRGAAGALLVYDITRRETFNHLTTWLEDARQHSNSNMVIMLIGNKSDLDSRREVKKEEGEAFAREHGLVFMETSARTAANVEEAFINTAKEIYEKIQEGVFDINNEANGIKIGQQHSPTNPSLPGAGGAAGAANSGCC

binding: binds
B1: BicaudalD (protein, UniProt P16568 1-782)
chain: MSSASNNGPSADQSVQDLQMEVERLTRELDQVSSASAQSAQYGLSLLEEKSALQQKCEELETLYDNTRHELDITQEALTKFQTSQKVTNKTGIEQEDALLNESAARETSLNLQIFDLENELKQLRHELERVRNERDRMLQENSDFGRDKSDSEADRLRLKSELKDLKFRETRMLSEYSELEEENISLQKQVSSLRSSQVEFEGAKHEIRRLTEEVELLNQQVDELANLKKIAEKQMEEALETLQGEREAKYALKKELDGHLNRESMYHISNLAYSIRSNMEDNASNNSDGEEENLALKRLEADLSTELKSPDGTKCDLFSEIHLNELKKLEKQLESMESEKTHLTANLREAQTSLDKSQNELQNFMSRLALLAAHVDALVQLKKQIDVKEQGKEGGQKKDELEQQLRALISQYANWFTLSAKEIDGLKTDIAELQKGLNYTDATTTLRNEVTNLKNKLLATEQKSLDLQSDVQTLTHISQNAGQSLGSARSTLVALSDDLAQLYHLVCTVNGETPTRVLLDHKTDDMSFENDSLTAIQSQFKSDVFIAKPQIVEDLQGLADSVEIKKYVDTVSDQIKYLKTAVEHTIDMNKHKIRSEGGDALEKVNTEEMEELQEQIVKLKSLLSVKREQIGTLRNVLKSNKQTAEVALTNLKSKYENEKIIVSDTMSKLRNELRLLKEDAATFSSLRAMFAARCEEYVTQVDDLNRQLEAAEEEKKTLNQLLRLAVQQKLALTQRLEEMEMDREMRHVRRPMPAQRGTSGKSSFSTRPSSRNPASSNANPF

From paper PMC4232348
